Legend:
[1] = tested on: Akt (Ser473 and T308) activation; assay: TGF-β-mediated activation of Akt in control lung fibroblasts (Western blot); format: cell-based, human
Method: (§1) Cell Culture and Reagents. Lung fibroblasts were isolated from patients undergoing surgical biopsy for the diagnosis of interstitial lung disease or lung transplant for IPF, and non-neoplastic tissue was obtained from patients undergoing surgical lung cancer resection, as described previously (Chang W. T. et al., J Biol Chem., 2001, 276, 2221-7). Fibroblasts were cultured in Dulbecco's modified Eagle's medium (DMEM) supplemented with 10% fetal bovine serum (FBS) at 5% CO2 at 37° C., and were used for studies for up to 5 passages after the initial preparation. For each experiment, cells were plated in culture vessels in DMEM complete medium and cultured until 70-80% in confluence, unless otherwise indicated.
Western Blot Analysis. Western blot analysis and band intensity quantitation were performed as described previously (Chang W. T. et al., J Biol Chem., 2001, 276, 2221-7). Briefly, the protein concentration was measured by Bradford assay (Bio-Rad) according to the manufacturer's instructions. An equal amount of protein was separated by SDS-PAGE and transferred to polyvinylidene difluoride membrane. […] The blot was visualized by enhanced chemiluminescence (GE Healthcare) and analyzed using a Kodak Image Station 4000R system (Carestream Health, Rochester, N.Y.). […]

Sequences of proteins named here, by UniProt entry; tags and fusion partners are left off.
UniProt P05771, whole entry, species assumed: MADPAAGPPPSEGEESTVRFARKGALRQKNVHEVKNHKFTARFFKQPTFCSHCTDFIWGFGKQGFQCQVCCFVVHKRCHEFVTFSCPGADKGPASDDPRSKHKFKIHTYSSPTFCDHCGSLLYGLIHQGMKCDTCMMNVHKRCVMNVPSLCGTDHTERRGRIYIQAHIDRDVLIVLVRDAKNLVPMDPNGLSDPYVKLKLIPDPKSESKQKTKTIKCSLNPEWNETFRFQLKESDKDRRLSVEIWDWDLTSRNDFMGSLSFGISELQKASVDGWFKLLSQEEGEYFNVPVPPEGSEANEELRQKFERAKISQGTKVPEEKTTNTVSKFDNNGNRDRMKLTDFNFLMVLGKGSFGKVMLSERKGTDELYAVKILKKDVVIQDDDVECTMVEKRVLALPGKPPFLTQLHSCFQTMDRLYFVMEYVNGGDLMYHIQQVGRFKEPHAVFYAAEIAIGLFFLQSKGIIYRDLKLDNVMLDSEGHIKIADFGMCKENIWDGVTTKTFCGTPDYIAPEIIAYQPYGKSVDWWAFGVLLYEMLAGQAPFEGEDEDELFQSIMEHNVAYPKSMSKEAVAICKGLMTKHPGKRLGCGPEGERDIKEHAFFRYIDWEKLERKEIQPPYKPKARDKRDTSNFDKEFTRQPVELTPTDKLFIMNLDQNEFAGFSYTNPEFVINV

[2] = tested on: TGF-β-stimulated control lung fibroblasts; assay: TGF-β-mediated induction of stromal proteins in control lung fibroblasts (Western blot); format: cell-based, human
Method: as §1
Western Blot Analysis. Western blot analysis and band intensity quantitation were performed as described previously (Chang W. T. et al., J Biol Chem., 2001, 276, 2221-7). Briefly, the protein concentration was measured by Bradford assay (Bio-Rad) according to the manufacturer's instructions. An equal amount of protein was separated by SDS-PAGE and transferred to polyvinylidene difluoride membrane. […] The blot was visualized by enhanced chemiluminescence (GE Healthcare) and analyzed using a Kodak Image Station 4000R system (Carestream Health, Rochester, N.Y.).
In further studies, we examined if inhibition of mTORC1 and/or mTORC2 would limit TGF-β-mediated induction of stromal genes. […]

IPF fibroblasts = assay: Migration of IPF fibroblasts; format: cell-based, human; conditions: FIG. 5
control fibroblasts = assay: Migration of control fibroblasts; format: cell-based, human; conditions: FIG. 5
[3] = tested on: 219 purified protein kinases; conditions: concentration 100-fold higher than its mTOR IC50 value; cited from earlier work
PKC-alpha [4] = target: T1, PKC-alpha (Homo sapiens, UniProt P17252); conditions: concentration 100-fold higher than its mTOR IC50 value; cited from earlier work
PKC-beta [5] = target: T2, PKC-beta (Homo sapiens, UniProt P05771); conditions: concentration 100-fold higher than its mTOR IC50 value; cited from earlier work
JAK2 [6] = conditions: concentration 100-fold higher than its mTOR IC50 value; cited from earlier work
PKC-alpha [7] = target: T1, PKC-alpha; conditions: read-out: in vitro IC50 against PKC-alpha; purified protein; cited from earlier work
PKC-beta [8] = target: T2, PKC-beta; conditions: purified protein; result in words; cited from earlier work
JAK2 [9] = conditions: cited from earlier work

CC(C)n1nc(-c2cc3cc(O)ccc3[nH]2)c2c(N)ncnc21 [PP242]
blocking of TGF-β activation of Akt (Ser473) [1]: blocked
blocking of TGF-β activation of Akt (T308) [1]: blocked
inhibition of TGF-β induction of PAI-1 [2]: > 80%
migration of IPF fibroblasts (IPF fibroblasts): significantly reduced
migration of TGF-β-treated fibroblasts (control fibroblasts; TGF-β-treated): significantly reduced
migration of unstimulated control fibroblasts (control fibroblasts; unstimulated): significantly reduced
effect on 219 purified protein kinases [3]: most protein kinases were unaffected
inhibition of PKC-alpha (PKC-alpha [4]): more than 80%
inhibition of PKC-beta (PKC-beta [5]): more than 80%
inhibition of JAK2 (JAK2 [6]): more than 80%
IC50 (PKC-alpha [7]): 50 nM
in vitro IC50 determination against PKC-beta (PKC-beta [8]): relatively inactive
in vitro IC50 determination against JAK2 (JAK2 [9]): relatively inactive

— patent US20110319405A1, “Treatment and prevention of diffuse parenchymal lung disease by selective active-site mTOR inhibitors” (The Board of Trustees of the Leland Stanford Junior …, priority 2010, published 2011)
